No constants are given. Whether binding was seen depends on the method and setting.
Target: luminal domain of human calnexin (residues 21-481) (human) (UniProt P27824)
Experiment: native gel or EMSA; clear-native PAGE (8% gel) and two-dimensional PAGE; 2 μM ERp57 with 2 μM CNX, 50 mM Tris/HCl pH 7.5, 0.05% CBB G-250, 10% glycerol, in the absence or presence of 1 mM CaCl2, 1 h at 30 °C then 15 min at 4 °C; both purified

B1: luminal domain of human calnexin (residues 21-481) (domain or fragment, UniProt P27824 21-481, looked up)
chain: HDGHDDDVIDIEDDLDDVIEEVEDSKPDTTAPPSSPKVTYKAPVPTGEVYFADSFDRGTLSGWILSKAKKDDTDDEIAKYDGKWEVEEMKESKLPGDKGLVLMSRAKHHAISAKLNKPFLFDTKPLIVQYEVNFQNGIECGGAYVKLLSKTPELNLDQFHDKTPYTIMFGPDKCGEDYKLHFIFRHKNPKTGIYEEKHAKRPDADLKTYFTDKKTHLYTLILNPDNSFEILVDQSVVNSGNLLNDMTPPVNPSREIEDPEDRKPEDWDERPKIPDPEAVKPDDWDEDAPAKIPDEEATKPEGWLDDEPEYVPDPDAEKPEDWDEDMDGEWEAPQIANPRCESAPGCGVWQRPVIDNPNYKGKWKPPMIDNPSYQGIWKPRKIPNPDFFEDLEPFRMTPFSAIGLELWSMTSDIFFDNFIICADRRIVDDWANDGWGLKKAADGAAEPGVVGQMIEAAEERP
notes: calnexin (CNX), human, luminal domain, residues 21-481; pET15b construct; the N-terminal His tag was removed from the plasmid and a His tag added at the C-terminus; also called CNX; ER-luminal domain of CNX
binding: no binding (tested: 2 μM)
